{"source": "patent US20180136241A1", "about": "“METHOD FOR EXAMINING FOOD ALLERGY AND EXAMINATION KIT” (The University of Tokyo, priority 2014, published 2018)", "key": {"[1]": {"tested_on": "food allergy symptoms induced by OVA", "assay": "Frequency of diarrhea in OVA-induced food allergy model mouse", "assay_type": "in vivo", "conditions": "BALB/c mice sensitized with OVA, drug i.p. every day during OVA oral administration period; cromolyn 300 μg/mouse, DEX 2 mg/kg; n=5", "protocol": "(§1) Model preparation: Wild type BALB/c mice (6-8 weeks old, female) were intraperitoneally sensitized with OVA by administering OVA (50 μg) twice at intervals of two weeks. Two weeks later, OVA (10 mg) was orally administered 10 times in total at intervals of two days. As a control, the mice sensitized with OVA was orally administered with physiological saline 10 times in total at intervals of two days.\nMedication treatment: During the period of orally administering OVA to the mice sensitized with OVA in accordance with the aforementioned method, dexamethasone (2 mg/kg) or sodium cromoglycate (300 μg/mouse) were intraperitoneally administered every day.\nSymptom evaluation: The number of mice which developed diarrhea within one hour after the OVA administration is determined in percentage."}, "[2]": {"tested_on": "tetranor-PGDM amount excreted in the urine", "assay": "Urinary tetranor-PGDM by HPLC-MS/MS in OVA-induced food allergy model mouse", "assay_type": "in vivo", "conditions": "BALB/c mice sensitized with OVA, drug i.p. every day during OVA oral administration period; cromolyn 300 μg/mouse, DEX 2 mg/kg; n=5", "protocol": "as §1\nMedication treatment: During the period of orally administering OVA to the mice sensitized with OVA in accordance with the aforementioned method, dexamethasone (2 mg/kg) or sodium cromoglycate (300 μg/mouse) were intraperitoneally administered every day. […]\nUsing the urine sample pretreated, tetranor-PGDM and tetranor-PGEM were measured by a high performance liquid chromatography tandem mass spectrometer (HPLC-MS/MS). […] As a quantitative method, MRM (Multiple Reaction Monitoring) method was employed. Tetranor-PGDM (mass number 328) and tetranor-PGEM (mass number 328) were detected by using product ion m/z 309, which was produced by further decomposing the produced precursor ion m/z (mass number÷charge) 327 by collision induced dissociation (CID). Internal standards, tetranor-PGDM-d6 (mass number 334) and tetranor-PGEM-d6 (mass number 334), were detected by using product ion m/z 315, which was produced by further decomposing precursor ion m/z (mass number÷charge) 333 by CID. […]"}}, "note": "At least one compound was matched to its structure with a doubt left."}
{"smiles": "C[C@@H]1C[C@H]2[C@@H]3CCC4=CC(=O)C=C[C@]4(C)[C@@]3(F)[C@@H](O)C[C@]2(C)[C@@]1(O)C(=O)CO", "note": "[DEX, dexamethasone]", "values": [{"measurement": "food allergy symptoms induced by OVA (frequency of diarrhea)", "setting": "[1]", "result": "suppressed food allergy symptoms"}, {"measurement": "tetranor-PGDM amount excreted in the urine", "setting": "[2]", "result": "significantly decreased"}]}
